According to publication PMC6821156:
Results are given in words; binding and its absence hold for the method and conditions named. Binding seen in cells or lysates may run through a third protein. A yes stands for co-enrichment or nearness to the bait. Other partners may have been found. For part of these data: No binding means not detected with the bait. For part of these data: Tags and fused reporters may be left off the sequences shown.

T1: Flag-tagged U2AF1a (endogenous, U2af1a-only Tsc1-/- MEF cell line) (mouse (endogenous in Tsc1-/- MEFs)) (UniProt Q9D883)
T1 sequence: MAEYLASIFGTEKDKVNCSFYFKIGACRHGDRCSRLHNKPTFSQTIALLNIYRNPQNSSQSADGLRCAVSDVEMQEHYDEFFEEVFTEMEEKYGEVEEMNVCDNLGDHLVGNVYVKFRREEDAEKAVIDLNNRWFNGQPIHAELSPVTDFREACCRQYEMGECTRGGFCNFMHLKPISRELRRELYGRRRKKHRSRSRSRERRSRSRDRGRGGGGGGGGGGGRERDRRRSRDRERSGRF

B1: SF3A1 (protein, UniProt Q8K4Z5 1-791)
chain: MQAGPVQAVPPPPPVATESKQPIEEEASSKEDPTPSKPVVGIIYPPPEVRNIVDKTASFVARNGPEFEARIRQNEINNPKFNFLNPNDPYHAYYRHKVSEFKEGKAQEPSAAIPKVMQQQQQATQQQLPQKVQAQVIQETIVPKEPPPEFEFIADPPSISAFDLDVVKLTAQFVARNGRQFLTQLMQKEQRNYQFDFLRPQHSLFNYFTKLVEQYTKILIPPKGLFSKLKKEAENPREVLDQVCYRVEWAKFQERERKKEEEEKEKERVAYAQIDWHDFVVVETVDFQPNEQGNFPPPTTPEELGARILIQERYEKFGESEEVEMEVESDEEDQEKAEETPSQLDQDTQVQDMDEGSDDEEEGQKVPPPPETPMPPPLPPTPDQVIVRKDYDPKASKPLPPAPAPDEYLVSPITGEKIPASKMQEHMRIGLLDPRWLEQRDRSIREKQSDDEVYAPGLDIESSLKQLAERRTDIFGVEETAIGKKIGEEEIQKPEEKVTWDGHSGSMARTQQAAQANITLQEQIEAIHKAKGLVPEDDTKEKIGPSKPNEIPQQPPPPSSATNIPSSAPPITSVPRPPAMPPPVRTTVVSAVPVMPRPPMASVVRLPPGSVIAPMPPIIHAPRINVVPMPPAAPPIMAPRPPPMIVPTAFVPAPPVAPVPAPAPMPPVHPPPPMEDEPPSKKLKTEDSLMPEEEFLRRNKGPVSIKVQVPNMQDKTEWKLNGQGLVFTLPLTDQVSVIKVKIHEATGMPAGKQKLQYEGIFIKDSNSLAYYNMASGAVIHLALKERGGRKK
B2: MBNL2 (endogenous, MEFs) (protein, UniProt Q8C181 1-373)
chain: MALNVAPVRDTKWLTLEVCRQYQRGTCSRSDEECKFAHPPKSCQVENGRVIACFDSLKGRCSRENCKYLHPPTHLKTQLEINGRNNLIQQKTAAAMLAQQMQFMFPGTPLHPVPTFPVGPTIGTNAAISFAPYLAPVTPGVGLVPTEVLPTTPVIVPGSPPVTVPGSTATQKLLRTDKLEVCREFQRGNCARGETDCRFAHPADSTMIDTNDNTVTVCMDYIKGRCMREKCKYFHPPAHLQAKIKAAQHQANQAAVAAQAAAAAATVMTQSTAKALKRPLEATVDLAFPPGALHPLPKRQALEKSNGASTVFNPSVLHYQQALTSAQLQQHTAFIPTVPMMHSATSATVSAATTPATSVPFAATATANQIILK

Columns and labels:
[1] = biological target: T1, Flag-tagged U2AF1a (endogenous, U2af1a-only Tsc1-/- MEF cell line) (mouse (endogenous in Tsc1-/- MEFs)); assay: affinity purification with mass spectrometry; cells cross-linked with 0.2% formaldehyde for 10 min; lysis buffer with 300 mM NaCl, 0.5% Empigen, 0.5% NP-40; anti-Flag M2 magnetic beads, in the presence of RNase A, eluted with 3x Flag peptide; label-free quantification against a control Flag-IP
[2] = biological target: Flag-tagged U2AF1b (endogenous, U2af1b-only Tsc1-/- MEF cell line) (mouse (endogenous in Tsc1-/- MEFs)); assay: as above

Binder | binding [1] | binding [2]
B1 | binds | –
B2 | no binding | binds
